# Experimental data published in patent US20210253738A1 (UNITED STATES OF AMERICA AS REPRESENTED BY THE SECRETARY …, published 2021).
# These are yes or no findings as the source states them, for the method shown. Some binding calls cover weakened binding; strength is not graded here.
# Molecular target: Protein A (UniProt P38507)
# Assay: lateral flow assay, Protein A control line on a nitrocellulose strip
binder,measurement,value
"5D2 monoclonal antibody (antibody, mouse IgG2b, kappa, V domains shown, Mouse IgG2b, kappa, raised against the small molecule emtricitabine (FTC); In the lateral flow assay the antibody was conjugated to gold; also called Mab 5D2; FTC (5D2) monoclonal antibody) VH: QVQLQQPGAELVKPGASVKVSCKASGYTFTSYWMHWVKQRPGQGLEWIGRIHLSDSDTNYNQNFKDKATLTVDKSSRTAHMHLSSLTSADSAVYYCAMGGTFQSNYDTYWGQGTLVTVSA VL: DIQMTQSPASLSASVGETVTITCRASGNIHNYLAWYQQKQGKSPQLLVYNAKTLTDGVPSRFSGSGSGTQYSLKINSLQPEDFGNYYCQHFLYTPYTFGGGTKLEMRR",binding,binds
